These are yes or no findings as the source states them, for the method shown. In cells and extracts the contact can be indirect. Some binding calls cover weakened binding; strength is not graded here.
Assays:
[1] = molecular target: XPA (human (endogenous in GMU6 skin fibroblasts)) (UniProt P23025); assay: co-IP; XPA-IP of whole cell extracts of GM skin fibroblasts, control and UV-irradiated; PARP1 detected by immunoblot
[2] = molecular target: XPA (human (endogenous in GMU6 skin fibroblasts)) (UniProt P23025); assay: co-IP; XPA-IP (IgG mock IP as control) of the chromatin-bound (Ch) protein fraction of GMU6 cells, control and globally irradiated with 30 J/m^2 UVC, fractionated after 10 min; PARP1 and XPA detected by immunoblot
[3] = molecular target: XPA (human (endogenous in GMU6 skin fibroblasts)) (UniProt P23025); assay: condition: only in the nucleoplasmic fraction (control and UV-irradiated cells); co-IP; XPA-IP (IgG mock IP as control) of the nucleoplasmic (Np) fraction of GMU6 cells, control and globally irradiated with 30 J/m^2 UVC, fractionated after 10 min; PARP1 and XPA detected by immunoblot

Sequences of proteins named here, by UniProt entry; tags and fusion partners are left off.
UniProt P23025: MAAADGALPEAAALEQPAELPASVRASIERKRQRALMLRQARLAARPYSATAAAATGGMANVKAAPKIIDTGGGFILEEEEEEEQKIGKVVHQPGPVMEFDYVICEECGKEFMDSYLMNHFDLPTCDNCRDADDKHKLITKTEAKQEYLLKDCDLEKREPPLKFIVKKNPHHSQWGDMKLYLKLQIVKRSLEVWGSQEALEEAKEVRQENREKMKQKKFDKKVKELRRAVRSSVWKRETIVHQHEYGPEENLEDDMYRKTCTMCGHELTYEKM
UniProt P09874: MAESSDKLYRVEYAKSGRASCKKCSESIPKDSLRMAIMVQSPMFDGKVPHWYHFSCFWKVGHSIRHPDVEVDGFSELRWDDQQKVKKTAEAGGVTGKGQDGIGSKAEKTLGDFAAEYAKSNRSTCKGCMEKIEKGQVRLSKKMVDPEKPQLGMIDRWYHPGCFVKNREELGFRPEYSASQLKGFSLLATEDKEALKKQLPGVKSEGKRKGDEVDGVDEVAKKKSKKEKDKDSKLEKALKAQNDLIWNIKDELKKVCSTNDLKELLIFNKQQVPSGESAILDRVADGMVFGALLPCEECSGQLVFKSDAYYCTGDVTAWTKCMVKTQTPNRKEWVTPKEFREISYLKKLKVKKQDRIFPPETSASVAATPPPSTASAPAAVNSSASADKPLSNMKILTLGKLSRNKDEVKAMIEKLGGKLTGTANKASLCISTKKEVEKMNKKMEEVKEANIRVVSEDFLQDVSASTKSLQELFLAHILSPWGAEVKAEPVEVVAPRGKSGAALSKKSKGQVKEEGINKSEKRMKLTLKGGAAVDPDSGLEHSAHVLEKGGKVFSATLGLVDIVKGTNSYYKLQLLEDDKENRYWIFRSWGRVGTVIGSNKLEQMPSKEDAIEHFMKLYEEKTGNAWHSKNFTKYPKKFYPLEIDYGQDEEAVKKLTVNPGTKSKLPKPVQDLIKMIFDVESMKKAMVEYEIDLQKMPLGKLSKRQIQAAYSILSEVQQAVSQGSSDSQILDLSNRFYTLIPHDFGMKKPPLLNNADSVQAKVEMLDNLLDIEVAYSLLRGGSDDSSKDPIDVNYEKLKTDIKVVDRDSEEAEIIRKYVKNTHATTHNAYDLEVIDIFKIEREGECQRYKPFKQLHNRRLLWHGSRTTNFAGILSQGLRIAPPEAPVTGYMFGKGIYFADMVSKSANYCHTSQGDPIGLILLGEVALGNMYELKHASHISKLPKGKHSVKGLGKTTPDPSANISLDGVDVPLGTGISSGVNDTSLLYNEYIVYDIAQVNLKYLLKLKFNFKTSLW

binding [1]: binds
binding [2]: binds
binding [3]: no binding
Substance: poly(ADP-ribose) polymerase-1 (PARP1) (from UniProt P09874 1-1014)

— publication PMC7705073
